The values that follow come from paper doi:10.1101/2021.09.06.459189.

Protein sequences, listed by entry. Tags and fused reporters are not part of them.
UniProt P29311: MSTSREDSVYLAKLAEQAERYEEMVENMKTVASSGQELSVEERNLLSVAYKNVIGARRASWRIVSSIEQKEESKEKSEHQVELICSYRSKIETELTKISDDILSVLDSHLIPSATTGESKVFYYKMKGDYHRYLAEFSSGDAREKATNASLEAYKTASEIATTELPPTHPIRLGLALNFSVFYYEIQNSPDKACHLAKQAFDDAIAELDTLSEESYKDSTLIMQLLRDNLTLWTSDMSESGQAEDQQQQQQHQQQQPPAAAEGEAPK

The experiment addresses lexA-BMH1 (pLB518) (S. cerevisiae) (UniProt P29311). Put plainly: two-hybrid.

These are yes or no findings as the source states them, for the method shown. Some entries that bind do so weakly or less than the wild type. Tags and fused reporters may be left off the sequences shown.

B1: fragment of NDT80 (amino acids 287-627), two-hybrid fusion (domain or fragment, UniProt P38830 287-627)
chain: TFHGENPGIPYDELALKNGSKGMFVYLQEMKTPPLIIRGRSPSNYASSQRITVRTPSSVNSSQNSTKRKMPSMAQPLNESCLNARPSKRRSKVALGAPNSGASISPIKSRQSTPMEASKENEDPFFRPNKRVETLEHIQNKLGALKNQCPDSSLKYPSSSSRGMEGCLEKEDLVYSSSFSVNMKQIELKPARSFEHENIFKVGSLAFKKINELPHENYDITIEKKSMEQNYLRPEIGSRSECKTSYGNELSLSNISFSILPNSAENFHLETALFPATEEDVPRTFSRILETGSFQNYYQKMDAENADRVYSKGVKLIASGTLPSGIFNREELFEEDSFYKY
As to B1, the binding result is recorded as “binds”.

B2: GAL4AD-CDC5 (pLB491) (enzyme, UniProt P32562 1-705)
chain: MSLGPLKAINDKQLNTRSKLVHTPIKGNTADLVGKENHFKQTKRLDPNNDHHHQPAQKKKREKLSALCKTPPSLIKTRGKDYHRGHFLGEGGFARCFQIKDDSGEIFAAKTVAKASIKSEKTRKKLLSEIQIHKSMSHPNIVQFIDCFEDDSNVYILLEICPNGSLMELLKRRKVLTEPEVRFFTTQICGAIKYMHSRRVIHRDLKLGNIFFDSNYNLKIGDFGLAAVLANESERKYTICGTPNYIAPEVLMGKHSGHSFEVDIWSLGVMLYALLIGKPPFQARDVNTIYERIKCRDFSFPRDKPISDEGKILIRDILSLDPIERPSLTEIMDYVWFRGTFPPSIPSTVMSEAPNFEDIPEEQSLVNFKDCMEKSLLLESMSSDKIQRQKRDYISSIKSSIDKLEEYHQNRPFLPHSLSPGGTKQKYKEVVDIEAQRRLNDLAREARIRRAQQAVLRKELIATSTNVIKSEISLRILASECHLTLNGIVEAEAQYKMGGLPKSRLPKIKHPMIVTKWVDYSNKHGFSYQLSTEDIGVLFNNGTTVLRLADAEEFWYISYDDREGWVASHYLLSEKPRELSRHLEVVDFFAKYMKANLSRVSTFGREEYHKDDVFLRRYTRYKPFVMFELSDGTFQFNFKDHHKMAISDGGKLVTYISPSHESTTYPLVEVLKYGEIPGYPESNFREKLTLIKEGLKQKSTIVTVD
For the molecule B2, the binding entry is listed as “binds”.
